AC50 data for 63 compounds are collected here from PubChem BioAssay AID493014 (National Center for Advancing Translational Sciences (NCATS), 2011).

A short description of the experiment: qHTS Assay to Find Inhibitors of Chronic Active B-Cell Receptor Signaling. The following applies: ABC-DLBCL IkBa-CBG/CBR reporter, luminescence ratio (green luciferase fused to IkBa over red control in TMD8 lymphoma cells), 4 h. In short, it runs like this:
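Cell line TMD8 (human ABC DLBCL), stably expressing tet-inducible CBG68-IkBa fusion and CBR; IMDM/0.5% FBS; cpd up to 46 uM; dox induction, 4 h, 37C/5% CO2; dual luminescence; green/red ratio; MG132 control.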
In general terms: qHTS replaces the single test concentration by a dilution series.

The mark [1] stands for this setting: measured here: CBR red luminescence, cell number.
Where [2] appears, read: measured here: IkBa-CBG green luminescence.

Some of the results follow. Shown are side measurements of this screen, not its main read-out; they come without a call. Compounds called inactive in the main read-out are mostly missing here. Potencies come from curve fits of mixed quality, noted in brackets.

As for `O=C(NCCC(=O)N1CCc2ccccc21)c1ccco1`, under setting [1], the AC50 (commonly the concentration giving half of the maximal activity seen) was 25.1 µM [rising, single point]. Consider `O=c1oc(-c2ccco2)nc2ccccc12`, for which, under setting [1], the AC50 is 11.2 µM [falling, partial curve]. Consider `COc1cc(NC(=O)CCN2CCN(C/C=C/c3ccccc3)CC2)cc(OC)c1`, for which the AC50 under setting [1] was 11.2 µM [falling, single point]. The same measure, in the same setting: for `CCN(CC(=O)Nc1ccc(OC)cc1)C(=O)Cc1coc2cc(C)c(C)cc12` the value was 16.4 µM [falling, single point]. For `Cc1ccc(/C=C/C(=O)NCc2ccncc2)cc1`, the AC50 under setting [1] was 14.6 µM [falling, single point]. Turning to `Cc1cc(-c2n[nH]c(=S)n2-c2ccccc2C)cs1`, the AC50 was 18.4 µM [falling, partial curve] under setting [1] and 18.4 µM [falling, partial curve, poor fit] under setting [2]. For the compound `O=c1c2cc(-c3ccccc3)sc2nc2n1N=C(c1cccs1)CS2`, under setting [1], the half-maximal activity concentration (AC50) was 0.282 µM [falling, full curve, poor fit].

Consider `CCOc1ccc(/C=N/NC(=O)c2ccoc2C)cc1OC`, for which the AC50 under setting [1] is 11.2 µM [falling, partial curve, poor fit]. Take `Cc1ccc(NC(=O)COC(=O)Cn2c(C)csc2=O)cc1C`: the AC50 under setting [1] is 3.26 µM [rising, full curve, poor fit]. Turning to `N#CCC(N)=C(C#N)C#N`, the AC50 under setting [1] is 20.6 µM [falling, partial curve, poor fit]. The same measure, in the same setting: the figure for `CCCN(CC1CC1)C(=O)COC(=O)c1[nH]c(C)c(C(=O)OCC)c1C` is 10.3 µM [falling, partial curve, poor fit]; for `CC(C)c1c(O)nc(SCc2ccc(F)cc2)[nH]c1=O` it is 25.1 µM [rising, single point]; for `N#Cc1c(N)nc2c(c1-c1ccncc1)CCCC2` it is 8.91 µM [falling, partial curve]. As to `Oc1c(Cl)cc(Cl)cc1/C=C/c1ccc2cccc(O)c2n1`, the AC50 by setting is: under setting [1], 11.2 µM [rising, partial curve]; under setting [2], 22.4 µM [falling, single point]. Consider `Cc1nc(NC(=O)c2oc3ccccc3c2C)sc1C(=O)N(C)C`, for which the AC50 under setting [1] was 4.11 µM [falling, full curve, poor fit]. On the same count and under the same terms, the figure for `CCN(C(=O)CN1CCCCC1)c1c(N)n(Cc2ccccc2)c(=O)[nH]c1=O` is 20.6 µM [falling, partial curve, poor fit]; for `COc1ccc(C(=O)C(Cc2cc(C(C)=O)ccc2OC)N2CCCC2)cc1` (stereo not drawn) it is 1.12 µM [rising, partial curve, poor fit].

As to `CCOc1cc(-c2nnc(SCC(=O)NCc3ccccc3)nc2-c2ccc(OC)c(OCC)c2)ccc1OC`, the AC50 reads like this: under setting [1], 4.47 µM [rising, full curve, poor fit]; under setting [2], 5.01 µM [falling, full curve]. Turning to `O=C(O)COc1ccc(Br)cc1/C=N/O`, under setting [1], the AC50 was 0.355 µM [falling, partial curve, poor fit]. Regarding `COc1ccc(OCC(=O)Nc2ccc3c(c2)OCO3)cc1`, the AC50 under setting [1] is 8.91 µM [falling, partial curve, poor fit]. Same read-out and setting: the figure for `Cc1ccc(O)c(CNc2cnc3ccccc3c2)c1` is 0.562 µM [rising, full curve].

Consider `Cc1cccc2[nH]c(-c3ccc(NC(=O)c4ccco4)cc3)nc12`, for which the AC50 under setting [1] was 11.2 µM [falling, partial curve, poor fit]. `C=CCOc1c(CNc2cccc(C(=O)O)c2)cccc1OC`: the AC50 reads like this: under setting [1], 1.03 µM [rising, partial curve]; under setting [2], 1.16 µM [rising, full curve, poor fit]. Consider `COc1ccc(CNC(=S)Nc2ccc(S(N)(=O)=O)cc2)cc1`, for which, under setting [1], the AC50 was 2.51 µM [falling, partial curve, poor fit].

On to `O=C1c2ccccc2C(Nc2ccc3c(c2)OCCO3)N1Cc1ccccc1` (stereo not drawn), for which the AC50 under setting [1] was 0.731 µM [rising, partial curve, poor fit].

`CN(C)C=Nc1ncc2c([nH]c3ccccc32)c1C#N`: the AC50 under setting [1] was 10 µM [falling, partial curve]. Regarding `COc1cc2c(C#N)c(N3CCN(c4ccccc4OC)CC3)nc(N)c2c(N)n1`, the AC50 under setting [1] is 10.3 µM [falling, partial curve]. Still for that read-out and setting: the figure for `CSC1=NCCN1C(=O)c1ccc(S(=O)(=O)N(C)C)cc1` is 1.84 µM [rising, full curve, poor fit]. On the same count and under the same terms, for `CCC(CC)NC(=O)COC(=O)c1ccc(OCC(=O)Nc2ccccc2OC)c(OC)c1` the value was 18.4 µM [falling, partial curve, poor fit]. On to `CCN(C(=O)COC(=O)c1c(C)nn(-c2ccccc2)c1C)C1CCS(=O)(=O)C1` (stereo not drawn), for which the AC50 is 0.631 µM [falling, full curve, poor fit] under setting [1] and 8.91 µM [rising, partial curve, poor fit] under setting [2]. With `N#CCCn1nc(-c2ccccc2)cc1-n1c(C(F)(F)F)nc2ccccc21`, under setting [1], the AC50 was 35.5 µM [falling, single point].

Regarding `CCCOC(=O)c1cc(NC(=O)/C=C/c2ccccc2)ccc1O`, the AC50 under setting [1] was 3.55 µM [falling, full curve, poor fit]. Still for that read-out and setting: for `CCc1sc(C(=O)Nc2cccnc2)cc1Br` the value was 0.794 µM [rising, full curve, poor fit]. Same read-out and setting: the figure for `O=C(NC1CCc2ccccc21)c1cc(COc2ccc(F)cc2F)on1` (stereo not drawn) is 3.98 µM [falling, partial curve, poor fit]; for `O=C(CSc1n[nH]c(-c2ccc(Br)cc2)n1)N1CCOCC1` it is 4.11 µM [rising, single point].

For the compound `COc1ccccc1NC(=O)CSc1nc2ccccc2c(=O)n1CCC(=O)NC1CCCCC1`, the AC50 under setting [1] was 35.5 µM [falling, single point].

Turning to `O=C(/C=C/c1ccccc1Cl)NCCc1ccccc1`, the AC50 under setting [1] was 12.6 µM [falling, single point]. On the same count and under the same terms, for `Cn1c(/C(C#N)=C/Nc2ccccn2)nc2ccccc21` the value was 0.103 µM [rising, full curve, poor fit]; for `COC(=O)c1c(C)cc(C)n2c1nc1ccccc12`, 35.5 µM [falling, single point].

For `CC(C)(C)C(=O)O/N=C(\N)COc1cccc(Cl)c1`, the AC50 under setting [1] is 35.5 µM [rising, single point]. `Cc1ccc(S(=O)(=O)N2CCCOC2CNC(=O)C(=O)NCCC2=CCCCC2)cc1` (stereo not drawn): the AC50 under setting [1] was 23.1 µM [rising, single point]. On the same count and under the same terms, the figure for `Cc1noc(C)c1CSc1ccccc1C(=O)N(C)CC(=O)Nc1cccc(F)c1` is 5.8 µM [rising, partial curve, poor fit]; for `O=C(Nc1ccc2ccccc2c1)c1cccnc1` it is 11.2 µM [falling, partial curve, poor fit].

As for `CC1CN=C(N(C(=S)Nc2ccccc2)c2cccc(C(F)(F)F)c2)S1` (stereo not drawn), under setting [1], the AC50 was 1 µM [rising, full curve].

Take `COc1ccc(CCNC(=O)c2ccc(CS(=O)Cc3ccc(Cl)cc3)o2)cc1OC` (stereo not drawn): the AC50 under setting [1] is 0.112 µM [falling, full curve, poor fit]. As for `COCCNCCCCSc1ccc(Cl)cc1`, under setting [1], the AC50 was 10 µM [falling, partial curve, poor fit]. Regarding `S=C(NCc1ccc2[nH]c3c(c2c1)CCCC3)Nc1ccccc1Cl`, the AC50 under setting [2] is 20.6 µM [falling, single point].

Take `CCN(CC)Cc1c(C(=O)N/N=C/c2cccc3ccccc23)nnn1-c1nonc1N`: the AC50 under setting [1] was 3.16 µM [falling, single point]. Still for that read-out and setting: for `CCCc1cc2c(cc1NC(=O)c1ccccc1F)OCO2` the value was 32.6 µM [rising, single point]. The same measure, in the same setting: for `CCN(CC)C(=O)C1CCCN(c2ccc([N+](=O)[O-])cc2/C=N/NC(=O)c2cccc(Br)c2)C1` (stereo not drawn) the value was 2.82 µM [falling, partial curve, poor fit]; for `Cc1c(N(C)S(=O)(=O)c2cccc(C(=O)NCC3CCCO3)c2)c(=O)n(-c2ccccc2)n1C` (stereo not drawn), 32.6 µM [rising, partial curve, poor fit]; for `O=C(N/N=C/C(Cl)=C/c1ccccc1)c1ccccn1`, 11.2 µM [falling, partial curve]. Regarding `Cc1ccc(-n2ncc3c(N(C)Cc4ccccc4)ncnc32)cc1`, the AC50 under setting [1] is 5.01 µM [rising, partial curve, poor fit]. Same read-out and setting: for `CCCOc1ccc(-c2nnc(-c3ccco3)o2)cc1` the value was 3.16 µM [rising, full curve, poor fit]; for `CCOc1cc(CN2CCCC(C(=O)c3cccc(C(F)(F)F)c3)C2)ccc1O` (stereo not drawn), 22.4 µM [falling, partial curve, poor fit]; for `COc1ccc(C(=O)Oc2ccc3ccc(=O)oc3c2)cc1`, 0.0891 µM [rising, full curve, poor fit]. Same read-out and setting: for `COc1ccc(-c2ccnc3nc(-n4cccc4)nn23)cc1` the value was 0.891 µM [falling, full curve, poor fit]; for `Cn1c(=O)c(C#N)c(-c2ccccc2)n2cnnc12`, 0.92 µM [falling, full curve, poor fit]; for `CN(C)CCN(C(=O)c1ccc(Br)s1)c1nc2cc3c(cc2s1)OCCO3`, 3.55 µM [falling, full curve]. With `COc1cc2c(c(OC)c1OC)-c1ccc(NC(=O)c3ccccc3)c(=O)cc1[C@@H](NC(C)=O)CC2`, under setting [2], the concentration at half-maximal activity (AC50) was 31.6 µM [falling, single point]. For `CCNc1nc(SCCOc2ccc(Br)cc2)nc(N(C)C)n1`, the AC50 under setting [1] is 11.2 µM [rising, single point].

Regarding `COCC(=O)Nc1nc(-c2ccc(-c3ccccc3)cc2)cs1`, the AC50 under setting [1] is 14.1 µM [falling, partial curve]. Still for that read-out and setting: the figure for `CC1=C(C(=O)N2CCOCC2)C(c2ccc(Cl)cc2)NC(=S)N1` (stereo not drawn) is 5.17 µM [rising, partial curve, poor fit].
